{"source": "patent US20220348910A1", "about": "“METHODS AND COMPOSITIONS FOR MULTIPLEX GENE EDITING” (THE GOVERNING COUNCIL OF THE UNIVERSITY OF TORONTO, priority 2019, published 2022)", "test_system": "HAP1 WT and EED knockout cells", "assay": "Validation of the Torin1-EED chemical genetic interaction (cell viability)", "type": "cell-based, human", "settings": "HAP1 wild type versus EED knockout cells, four days post-treatment", "note": "For at least one compound, name, drawing or mass did not settle the structure."}
{"smiles": "CCC(=O)N1CCN(c2ccc(-n3c(=O)ccc4cnc5ccc(-c6cnc7ccccc7c6)cc5c43)cc2C(F)(F)F)CC1", "note": "[Torin1]", "values": [{"measurement": "tolerance of mTOR inhibition (Torin1 IC50, cell viability)", "value": "increased tolerance of mTOR inhibition was observed in PRC2-deficient cells"}]}
